PubChem BioAssay AID1259254 – NCATS, 2017
Screen: 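Gene knock-downs that lead to re-replication, shown by excess G2 DNA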 (primary screen). Cell system: human HCT116 colorectal cancer cells. Knock-down reagent: single siRNA against human genes. Duration: 3 days. Detection: 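Imaged Hoechst DNA stain sorts each cell into a cycle phase by DNA amount; per plate, G2 fraction set to 0% for non-targeting and 100% for GMNN siRNA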. Scale: G2 robust z-score: higher = more G2 cells, more excess DNA replication. Rule for the call: 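Active siRNAs have a G2 robust z of 5 or more median absolute deviations over the median, which in these data means about 38% or higher of GMNN control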.
The whole screen tested about 59,000 reagents; this is an unselected part. About 1,550 of all reagents (2.6%) count as active. 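G2 share is only a proxy for re-replication; each gene was hit by three separate siRNAs, and active genes were retested.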 Entries without a mark were called inactive. The numbers tell different reagents against one gene apart. Further read-outs or replicates are left out here. Not stated in the record: the amount of reagent.

For MYL11 #1, what does the deposit list?
G2 robust z-score: -0.113

With MYL11 #2, how do the results read?
G2 robust z-score: -1.23

With MYL11 #3, how do the results read?
G2 robust z-score: 0.451

With CKLF #1, how do the results read?
G2 robust z-score: -0.325

For CKLF #2, what was measured?
G2 robust z-score: 0.199

For CKLF #3, what was measured?
G2 robust z-score: 0.127

For PCBP3 #1, what was measured?
G2 robust z-score: -0.663

For PCBP3 #2, how do the results read?
G2 robust z-score: 0.37

What did the screen give for PCBP3 #3?
G2 robust z-score: -0.143

What is on record for LRRC75A #1?
G2 robust z-score: -0.156

With LRRC75A #2, what does the deposit list?
G2 robust z-score: 2.17

What is on record for LRRC75A #3?
G2 robust z-score: -0.947

What did the screen give for PTGR2 #1?
G2 robust z-score: -0.612

With PTGR2 #2, what was measured?
G2 robust z-score: -0.722

For PTGR2 #3, what does the deposit list?
G2 robust z-score: -0.484

Single entries from the entries so far:
PTGR2 #2, G2 robust z-score: -0.722
PTGR2 #3, G2 robust z-score → -0.484

Continued.
What is on record for JHY #1?
G2 robust z-score: -0.85

With JHY #2, how do the results read?
G2 robust z-score: 2.46

For JHY #3, how do the results read?
G2 robust z-score: 1.45

What is on record for MMD2 #1?
G2 robust z-score: 0.602

Which result is listed for MMD2 #2?
G2 robust z-score: 3.99

With MMD2 #3, what was measured?
G2 robust z-score: -0.437

How did the screen score GJA5 #1?
G2 robust z-score: 0.158

How did the screen score GJA5 #2?
G2 robust z-score: -0.638

What is on record for GJA5 #3?
G2 robust z-score: 1.04

What did the screen give for ATP6V0D1 #1?
G2 robust z-score: -0.593

With ATP6V0D1 #2, what was measured?
G2 robust z-score: -0.633

For ATP6V0D1 #3, what does the deposit list?
G2 robust z-score: -1.51

With CYP4X1 #1, what was measured?
G2 robust z-score: 0.668

How did the screen score CYP4X1 #2?
G2 robust z-score: 1.34

What is on record for CYP4X1 #3?
G2 robust z-score: -1.33
